Where a name gives a salt, the structure may show the parent alone. Some of the results follow. Repeats in this data set agree poorly, so a single value says little.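 Human fetal ventral-midbrain neural progenitor line ReNCell VM, differentiated without mitogens. Images stained for doublecortin (early neurons) or tyrosine hydroxylase (dopaminergic neurons) were scored by blinded raters against untreated wells (0 = no change). Repeats and both raters were averaged, and compounds averaging 2 or higher were picked as hits for retesting.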
Assays:
ReNCell VM [1] = test: neuronal differentiation score (DCX+ cell fraction vs untreated, manual image score) (score (-3 to 3)); higher = more neuronal differentiation; conditions: 2 uM, 2 weeks
ReNCell VM [2] = test: dopaminergic neuron differentiation score (TH+ cell fraction vs untreated, manual image score) (score (0 to 3)); higher = more TH+ dopaminergic neuron differentiation; conditions: 2 uM, 4 weeks, BDNF 10 ng/ml + GDNF 10 ng/ml

Structure (SMILES)	neuronal differentiation score (ReNCell VM [1]; library: LOPAC)	neuronal differentiation score (ReNCell VM [1]; library: Tocriscreen)	dopaminergic neuron differentiation score (ReNCell VM [2]; library: LOPAC)	dopaminergic neuron differentiation score (ReNCell VM [2]; library: Tocriscreen)	neuronal differentiation score (ReNCell VM [1]; library: Prestwick)	dopaminergic neuron differentiation score (ReNCell VM [2]; library: Prestwick)	neuronal differentiation score (ReNCell VM [1]; library: Phytochemical)	dopaminergic neuron differentiation score (ReNCell VM [2]; library: Phytochemical)
CC1CCN(CC[C@H]2CCCN2S(=O)(=O)c2cccc(O)c2)CC1	inactive: 0	inactive: 0	inactive: 0	inactive: 0	–	–	–	–
COc1cccc2c1C(=O)c1c(O)c3c(c(O)c1C2=O)C[C@@](O)(C(C)=O)C[C@@H]3O[C@H]1C[C@H](N)[C@H](O)[C@H](C)O1 [Daunorubicin hydrochloride]	–	inactive: 0	–	inactive: 0	inactive: 0	inactive: 0	–	–
O=C(O)c1cccnc1Nc1cccc(C(F)(F)F)c1 [Niflumic acid]	inactive: 0	–	inactive: 0	–	inactive: 0	inactive: 0	–	–
CN(C(=O)CCCOc1ccc2[nH]c(=O)ccc2c1)C1CCCCC1 [Cilostamide]	inactive: 0	inactive: 0	active: 3	inactive: 1	–	–	–	–
O=C(O)COCCN1CCN(C(c2ccccc2)c2ccc(Cl)cc2)CC1 (stereo not drawn) [Cetirizine dihydrochloride]	–	inactive: 0	–	inactive: 0	inactive: 0	inactive: 0	–	–
O=C(O)c1cc(O)c2ccc(Cl)cc2n1 [7-Chlorokynurenic acid]	inactive: 0	inactive: 0	inactive: 0	inactive: 0	–	–	–	–
Oc1cc(O)cc(/C=C/c2ccc(O)c(O)c2)c1 [Piceatannol]	inactive: 0	inactive: 0	inactive: 0	inactive: 0	–	–	–	–
Cc1ccc(S(=O)(=O)NC(=O)NN2CCCCCC2)cc1 [Tolazamide]	inactive: 0	–	inactive: 0	–	inactive: 0	inactive: 0	–	–
Cn1cnc2c(NCc3ccccc3)nc(NCCO)nc21 [Olomoucine]	inactive: 0	inactive: 0	inactive: 0	inactive: 0	–	–	–	–
NC[C@@H]1O[C@H](C23CC4CC(CC(C4)C2)C3)Cc2c1ccc(O)c2O	inactive: 0	inactive: 0	inactive: 0	inactive: 0	–	–	–	–
CN[C@H]1CC[C@@H](c2ccc(Cl)c(Cl)c2)c2ccccc21 [Sertraline hydrochloride]	inactive: 0	inactive: 0	inactive: 0	inactive: 0	–	–	–	–
Cn1cnc([N+](=O)[O-])c1Sc1ncnc2[nH]cnc12 [Azathioprine]	inactive: 0	–	inactive: 0	–	inactive: 0	inactive: 0	–	–
C1COC(NC(C2CC2)C2CC2)=N1 [Rilmenidine hemifumarate]	inactive: 0	inactive: 0	inactive: 0	inactive: 0	–	–	–	–
Nc1nnc(-c2cccc(Cl)c2Cl)c(N)n1 [Lamotrigine]	inactive: 0	–	inactive: 0	–	inactive: 0	inactive: 0	–	–
N=C(N)NC(=O)c1nc(Cl)c(N)nc1N [Amiloride hydrochloride]	inactive: 0	active: 2	inactive: 0	inactive: 0	–	–	–	–
N/C(=N\C(=O)c1nc(Cl)c(N)nc1N)NCc1ccccc1 [Benzamil hydrochloride]	inactive: 0	–	inactive: 0	–	inactive: 0	inactive: 0	–	–
CCCCc1oc2ccccc2c1C(=O)c1cc(I)c(OCCN(CC)CC)c(I)c1 [Amiodarone hydrochloride]	inactive: 0	–	inactive: 0	–	inactive: 0	inactive: 0	–	–
CC(C)(C)c1ccc(/C=C/C(=O)Nc2ccc3c(c2)OCCO3)cc1	inactive: 0	inactive: 0	inactive: 0	inactive: 0	–	–	–	–
CC(=O)c1ccc(S(=O)(=O)NC(=O)NC2CCCCC2)cc1 [Acetohexamide]	inactive: 0	–	inactive: 1	–	inactive: 0	inactive: 0	–	–
CC(/C=C/c1cccc(Oc2ccc(F)cc2)c1)N(O)C(N)=O (stereo not drawn)	active: 3	inactive: 1	inactive: 1	inactive: 0	–	–	–	–
CCC1(C)CC(=O)NC1=O (stereo not drawn) [Ethosuximide]	inactive: 0	–	inactive: 0	–	inactive: 0	inactive: 0	–	–
CC(=O)O[C@H]1C(=O)[C@@]2(C)[C@H]([C@H](OC(=O)c3ccccc3)[C@]3(O)C[C@H](OC(=O)[C@H](O)[C@@H](NC(=O)c4ccccc4)c4ccccc4)C(C)=C1C3(C)C)[C@]1(OC(C)=O)CO[C@@H]1C[C@@H]2O [Taxol]	inactive: 0	inactive: 0	inactive: 0	inactive: 0	–	–	–	–
Cc1ccc(=O)n(-c2ccccc2)c1 [Pirfenidone]	inactive: 0	inactive: 0	inactive: 0	inactive: 0	–	–	–	–
C=CCc1ccccc1OCC(O)CNC(C)C (stereo not drawn) [Alprenolol hydrochloride]	inactive: 0	–	inactive: 0	–	inactive: 0	inactive: 0	–	–
O=C(O)CCc1nc(-c2ccccc2)c(-c2ccccc2)o1 [Oxaprozin]	inactive: 0	–	inactive: 0	–	inactive: 0	inactive: 0	–	–
NS(=O)(=O)c1cc(C(=O)O)c(NCc2ccco2)cc1Cl [Furosemide]	inactive: 0	–	inactive: 0	–	inactive: 0	inactive: 0	–	–

Structure (SMILES)	neuronal differentiation score (ReNCell VM [1]; library: LOPAC)	neuronal differentiation score (ReNCell VM [1]; library: Tocriscreen)	dopaminergic neuron differentiation score (ReNCell VM [2]; library: LOPAC)	dopaminergic neuron differentiation score (ReNCell VM [2]; library: Tocriscreen)	neuronal differentiation score (ReNCell VM [1]; library: Prestwick)	dopaminergic neuron differentiation score (ReNCell VM [2]; library: Prestwick)	neuronal differentiation score (ReNCell VM [1]; library: Phytochemical)	dopaminergic neuron differentiation score (ReNCell VM [2]; library: Phytochemical)
CCCCNc1cc(C(=O)O)cc(S(N)(=O)=O)c1Oc1ccccc1 [Bumetanide]	inactive: -1	–	inactive: 0	–	inactive: 0	inactive: 0	–	–
C(=C\c1ccccc1)/CN1CCN(C(c2ccccc2)c2ccccc2)CC1 [Cinnarizine]	inactive: 0	–	inactive: 0	–	inactive: 0	inactive: 0	–	–
CC[C@H](NC(=O)c1c(C)c(-c2ccccc2)nc2ccccc12)c1ccccc1	inactive: 0	inactive: 0	inactive: 0	inactive: 0	–	–	–	–
CCN(CC)CCOC(=O)C1(c2ccc([N+](=O)[O-])cc2)CCCC1 [Nitrocaramiphen hydrochloride]	–	inactive: 0	–	inactive: 0	inactive: 0	inactive: 0	–	–
CCN(CC)CCNC(=O)c1ccc(N)cc1 [Procainamide hydrochloride]	inactive: 0	–	inactive: 0	–	inactive: 0	inactive: 0	–	–
Cc1nc2c(OCc3ccccc3)cccn2c1CC#N	inactive: -1	inactive: 0	inactive: 0	inactive: 0	–	–	–	–
OC[C@H]1O[C@@H](n2cnc3c(NC4CCCC4)ncnc32)[C@H](O)[C@@H]1O [N6-Cyclopentyladenosine]	inactive: -3	inactive: 1	inactive: 0	inactive: 0	–	–	–	–
Nc1ccc(-c2nc3ccc(-c4nc5ccc(N)cc5[nH]4)cc3[nH]2)cc1	inactive: -2	inactive: 0	inactive: 0	inactive: 0	–	–	–	–
C[C@H](CS)C(=O)N1CCC[C@H]1C(=O)O [Captopril]	inactive: 0	–	inactive: 0	–	inactive: 0	inactive: 0	–	–
CCCNCC(O)COc1ccccc1C(=O)CCc1ccccc1 (stereo not drawn) [Propafenone hydrochloride]	inactive: 0	–	inactive: 0	–	inactive: 0	inactive: 0	–	–
N#CC(=C(/N)Sc1ccccc1N)/C(C#N)=C(/N)Sc1ccccc1N	inactive: -2	inactive: 0	inactive: 0	inactive: 1	–	–	–	–
CC(C)(Oc1ccc(Cl)cc1)C(=O)O [Clofibric acid]	–	inactive: 0	–	inactive: 0	inactive: 0	inactive: 0	–	–
CN1[C@@H]2CC[C@H]1C[C@@H](OC(c1ccccc1)c1ccccc1)C2 [Benztropine mesylate]	inactive: 0	–	inactive: 0	–	inactive: 0	inactive: 0	–	–
NC(=O)N1c2ccccc2C=Cc2ccccc21 [Carbamazepine]	inactive: 0	–	inactive: 0	–	inactive: 0	inactive: 0	–	–
OCCN1CCN(CCCN2c3ccccc3Sc3ccc(C(F)(F)F)cc32)CC1 [Fluphenazine dihydrochloride]	inactive: 0	–	inactive: 0	–	inactive: 0	inactive: 0	–	–
CC(CN1c2ccccc2Sc2ccccc21)N(C)C (stereo not drawn) [Promethazine hydrochloride]	inactive: 0	–	inactive: 0	–	inactive: 0	inactive: 0	–	–
CN(C)CCCC1(c2ccc(F)cc2)OCc2cc(C#N)ccc21 (stereo not drawn) [Citalopram hydrobromide]	inactive: 0	inactive: 0	inactive: 0	inactive: 0	–	–	–	–
CC(=O)CCCCn1c(=O)c2c(ncn2C)n(C)c1=O [Pentoxifylline]	inactive: 0	–	inactive: 0	–	inactive: 0	inactive: 0	–	–
CCC(C)N(C)C(=O)c1cc2ccccc2c(-c2ccccc2Cl)n1 (stereo not drawn)	inactive: 0	inactive: 0	inactive: 0	inactive: 0	–	–	–	–
C[C@]12CC[C@@H]3c4ccc(O)cc4CC[C@H]3[C@@H]1CCC2=O [Estrone]	inactive: 0	–	inactive: 0	–	inactive: 0	inactive: 0	–	–
CC(=O)O[C@]1(C(C)=O)CC[C@H]2[C@@H]3C=C(Cl)C4=CC(=O)[C@@H]5C[C@@H]5[C@]4(C)[C@H]3CC[C@@]21C [Cyproterone acetate]	inactive: 0	–	inactive: 0	–	inactive: 0	inactive: 0	–	–
CCN(CC)CCOC(=O)C1(C2CCCCC2)CCCCC1 [Dicyclomine hydrochloride]	inactive: 1	–	inactive: 0	–	inactive: 0	inactive: 0	–	–
O=[N+]([O-])c1cc2nc(O)c(O)nc2cc1[N+](=O)[O-]	inactive: 0	inactive: 0	inactive: 0	inactive: 0	–	–	–	–
CC(NCCc1ccc(O)cc1)C(O)c1ccc(O)cc1 (stereo not drawn) [Ritodrine hydrochloride]	inactive: 0	–	inactive: 0	–	inactive: 0	inactive: 0	–	–
NC(CO)C(=O)NNCc1ccc(O)c(O)c1O (stereo not drawn) [Benserazide hydrochloride]	inactive: 0	–	inactive: 0	–	inactive: 0	inactive: 0	–	–
Cn1c(=O)c2[nH]cnc2n(C)c1=O [Aminophylline]	–	–	–	–	inactive: 0	inactive: 0	inactive: -1	inactive: 0

Quoted from the listing:
Under dopaminergic neuron differentiation score (ReNCell VM [2]; library: Prestwick), `C[C@]12CC[C@@H]3c4ccc(O)cc4CC[C@H]3[C@@H]1CCC2=O` [Estrone] is listed with inactive: 0
Under dopaminergic neuron differentiation score (ReNCell VM [2]; library: Tocriscreen), `CC[C@H](NC(=O)c1c(C)c(-c2ccccc2)nc2ccccc12)c1ccccc1` is listed with inactive: 0

— the supplement of paper PMC4635364
